For test [1], the target named is CUL4B (human (endogenous in HCT-116)) (UniProt Q13620). Nature of the test: co-IP; HCT-116 cells treated with 0, 0.2, 2 or 20 μM NSC1892 for 6 hrs, lysed in RIPA buffer; immunoprecipitation of endogenous proteins with anti-CUL4A or anti-CUL4B and protein A agarose; immunoblot.
The target of test [2] is CUL4A (human (endogenous in HCT-116)) (UniProt Q13619). Described as above.

By UniProt entry, the sequences of proteins in these tests, tags left out.
UniProt Q13620: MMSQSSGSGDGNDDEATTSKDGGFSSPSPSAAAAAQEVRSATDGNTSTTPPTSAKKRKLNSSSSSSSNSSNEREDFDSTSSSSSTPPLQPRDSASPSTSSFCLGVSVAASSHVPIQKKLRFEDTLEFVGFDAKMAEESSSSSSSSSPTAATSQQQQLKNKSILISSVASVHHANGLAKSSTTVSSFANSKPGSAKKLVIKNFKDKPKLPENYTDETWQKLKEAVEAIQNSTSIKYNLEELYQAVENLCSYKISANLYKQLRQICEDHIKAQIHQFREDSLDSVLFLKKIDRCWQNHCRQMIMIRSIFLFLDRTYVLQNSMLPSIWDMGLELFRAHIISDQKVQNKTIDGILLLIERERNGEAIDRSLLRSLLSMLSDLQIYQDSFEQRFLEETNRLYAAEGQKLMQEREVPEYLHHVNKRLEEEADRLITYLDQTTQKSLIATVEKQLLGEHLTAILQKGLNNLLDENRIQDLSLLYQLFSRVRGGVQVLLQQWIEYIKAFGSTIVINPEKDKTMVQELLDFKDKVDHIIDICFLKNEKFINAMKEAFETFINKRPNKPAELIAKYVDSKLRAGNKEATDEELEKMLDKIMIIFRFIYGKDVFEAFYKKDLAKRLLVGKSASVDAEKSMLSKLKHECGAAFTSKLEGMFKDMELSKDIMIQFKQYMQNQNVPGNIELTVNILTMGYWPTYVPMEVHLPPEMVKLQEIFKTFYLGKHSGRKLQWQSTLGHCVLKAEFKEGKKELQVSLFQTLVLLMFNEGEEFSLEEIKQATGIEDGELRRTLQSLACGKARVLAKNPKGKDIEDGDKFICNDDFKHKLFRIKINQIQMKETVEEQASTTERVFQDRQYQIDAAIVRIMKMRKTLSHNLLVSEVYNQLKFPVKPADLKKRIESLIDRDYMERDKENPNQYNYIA
UniProt Q13619: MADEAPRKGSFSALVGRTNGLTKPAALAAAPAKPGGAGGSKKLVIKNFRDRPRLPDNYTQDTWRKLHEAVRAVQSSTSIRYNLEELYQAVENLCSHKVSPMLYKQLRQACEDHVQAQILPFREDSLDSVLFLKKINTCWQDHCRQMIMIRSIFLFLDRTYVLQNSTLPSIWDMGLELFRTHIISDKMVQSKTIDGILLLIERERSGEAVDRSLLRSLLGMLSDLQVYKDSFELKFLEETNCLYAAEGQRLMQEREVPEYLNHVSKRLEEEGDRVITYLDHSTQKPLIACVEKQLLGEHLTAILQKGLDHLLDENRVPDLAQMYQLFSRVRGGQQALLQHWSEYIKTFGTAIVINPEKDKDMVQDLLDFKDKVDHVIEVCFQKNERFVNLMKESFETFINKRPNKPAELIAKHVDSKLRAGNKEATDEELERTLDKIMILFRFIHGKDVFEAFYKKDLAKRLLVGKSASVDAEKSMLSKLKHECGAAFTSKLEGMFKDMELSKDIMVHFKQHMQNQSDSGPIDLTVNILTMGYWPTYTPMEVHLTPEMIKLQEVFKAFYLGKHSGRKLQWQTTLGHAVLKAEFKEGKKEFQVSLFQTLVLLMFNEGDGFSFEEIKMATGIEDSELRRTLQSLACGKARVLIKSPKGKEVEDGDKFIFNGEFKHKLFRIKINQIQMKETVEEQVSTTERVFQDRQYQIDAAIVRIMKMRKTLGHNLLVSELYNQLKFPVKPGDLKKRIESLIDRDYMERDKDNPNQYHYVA
UniProt Q16531: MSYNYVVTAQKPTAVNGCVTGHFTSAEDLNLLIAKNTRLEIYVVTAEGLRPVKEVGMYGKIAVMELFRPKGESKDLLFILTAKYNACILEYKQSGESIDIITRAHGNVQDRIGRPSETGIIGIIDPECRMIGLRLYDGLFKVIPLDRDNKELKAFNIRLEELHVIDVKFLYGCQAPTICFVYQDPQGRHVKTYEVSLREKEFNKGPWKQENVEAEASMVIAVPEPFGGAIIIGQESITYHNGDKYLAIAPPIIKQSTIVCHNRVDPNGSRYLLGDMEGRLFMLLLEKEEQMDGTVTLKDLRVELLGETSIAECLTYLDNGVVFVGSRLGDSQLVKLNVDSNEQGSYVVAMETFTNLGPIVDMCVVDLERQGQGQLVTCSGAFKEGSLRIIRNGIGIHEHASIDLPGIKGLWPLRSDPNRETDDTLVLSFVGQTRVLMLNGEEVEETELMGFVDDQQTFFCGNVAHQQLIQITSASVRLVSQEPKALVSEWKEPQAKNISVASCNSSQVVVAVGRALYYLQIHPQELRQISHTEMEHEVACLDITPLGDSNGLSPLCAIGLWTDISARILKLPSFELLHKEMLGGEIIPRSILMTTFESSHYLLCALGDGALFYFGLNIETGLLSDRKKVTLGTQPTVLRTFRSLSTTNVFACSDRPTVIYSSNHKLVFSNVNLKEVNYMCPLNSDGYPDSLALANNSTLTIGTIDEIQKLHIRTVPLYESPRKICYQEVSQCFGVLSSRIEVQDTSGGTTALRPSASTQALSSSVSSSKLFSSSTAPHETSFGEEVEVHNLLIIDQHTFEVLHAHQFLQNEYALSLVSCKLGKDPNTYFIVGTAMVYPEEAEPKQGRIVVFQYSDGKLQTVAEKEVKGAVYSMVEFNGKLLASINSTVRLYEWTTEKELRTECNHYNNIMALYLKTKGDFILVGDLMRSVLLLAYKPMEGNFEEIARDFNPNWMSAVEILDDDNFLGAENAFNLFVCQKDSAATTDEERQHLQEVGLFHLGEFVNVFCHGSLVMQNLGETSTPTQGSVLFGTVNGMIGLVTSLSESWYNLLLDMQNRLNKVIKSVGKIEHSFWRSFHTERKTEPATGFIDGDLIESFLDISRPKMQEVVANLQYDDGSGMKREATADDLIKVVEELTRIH

No constants are given. Whether binding was seen depends on the method and setting. In cells and extracts the contact can be indirect. Some binding calls cover weakened binding; strength is not graded here.

With CUL4A (from UniProt Q13619 1-759), the binding entry in test [1] is given as “binds”.
In the case of CUL4B (from UniProt Q13620 1-913), in test [2], the binding entry is “binds”.
As to DDB1 (from UniProt Q16531 1-1140), the binding entry in test [1] was “binds”.

B1: DCAF4 (protein, UniProt Q8WV16 1-495)
chain: MNKSRWQSRRRHGRRSHQQNPWFRLRDSEDRSDSRAAQPAHDSGHGDDESPSTSSGTAGTSSVPELPGFYFDPEKKRYFRLLPGHNNCNPLTKESIRQKEMESKRLRLLQEEDRRKKIARMGFNASSMLRKSQLGFLNVTNYCHLAHELRLSCMERKKVQIRSMDPSALASDRFNLILADTNSDRLFTVNDVKVGGSKYGIINLQSLKTPTLKVFMHENLYFTNRKVNSVCWASLNHLDSHILLCLMGLAETPGCATLLPASLFVNSHPGIDRPGMLCSFRIPGAWSCAWSLNIQANNCFSTGLSRRVLLTNVVTGHRQSFGTNSDVLAQQFALMAPLLFNGCRSGEIFAIDLRCGNQGKGWKATRLFHDSAVTSVRILQDEQYLMASDMAGKIKLWDLRTTKCVRQYEGHVNEYAYLPLHVHEEEGILVAVGQDCYTRIWSLHDARLLRTIPSPYPASKADIPSVAFSSRLGGSRGAPGLLMAVGQDLYCYSYS
For B1, the binding entry in test [1] and in test [2] was “binds” each time.

The values above are taken from article PMC7053343, “Small molecule NSC1892 targets the CUL4A/4B-DDB1 interactions and causes impairment of CRL4^DCAF4 E3 ligases to inhibit colorectal cancer cell growth” (International Journal of Biological Sciences, 2020).
